The supplement of paper PMC10849652
The list shows a part of the results.

By UniProt entry, the sequences of proteins in these tests, tags left out. Where a name states a change or a piece, a line headed by the entry shows the natural chain unless it says otherwise.
UniProt Q9Y385: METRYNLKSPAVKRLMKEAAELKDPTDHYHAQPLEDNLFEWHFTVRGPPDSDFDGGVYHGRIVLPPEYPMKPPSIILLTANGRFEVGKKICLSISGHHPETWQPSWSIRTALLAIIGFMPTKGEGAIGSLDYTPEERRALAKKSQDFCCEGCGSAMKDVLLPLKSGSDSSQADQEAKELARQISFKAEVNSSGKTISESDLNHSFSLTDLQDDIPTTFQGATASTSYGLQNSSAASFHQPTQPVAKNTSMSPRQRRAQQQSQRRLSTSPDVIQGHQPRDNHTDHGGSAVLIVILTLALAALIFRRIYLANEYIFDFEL
UniProt P61086: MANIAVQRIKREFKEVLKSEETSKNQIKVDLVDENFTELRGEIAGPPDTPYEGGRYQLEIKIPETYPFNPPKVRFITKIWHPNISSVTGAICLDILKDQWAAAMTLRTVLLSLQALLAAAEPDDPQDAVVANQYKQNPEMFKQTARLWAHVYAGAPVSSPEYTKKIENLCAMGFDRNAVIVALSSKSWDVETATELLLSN
UniProt P51668: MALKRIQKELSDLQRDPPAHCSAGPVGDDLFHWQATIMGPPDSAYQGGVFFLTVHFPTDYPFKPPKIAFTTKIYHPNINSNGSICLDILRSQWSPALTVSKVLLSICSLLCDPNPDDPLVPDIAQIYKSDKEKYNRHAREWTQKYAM
UniProt Q15819: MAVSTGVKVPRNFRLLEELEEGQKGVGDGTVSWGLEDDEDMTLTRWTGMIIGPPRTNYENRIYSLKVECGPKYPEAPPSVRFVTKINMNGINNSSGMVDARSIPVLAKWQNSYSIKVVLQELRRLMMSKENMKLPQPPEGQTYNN
UniProt P23258, whole entry, looked up: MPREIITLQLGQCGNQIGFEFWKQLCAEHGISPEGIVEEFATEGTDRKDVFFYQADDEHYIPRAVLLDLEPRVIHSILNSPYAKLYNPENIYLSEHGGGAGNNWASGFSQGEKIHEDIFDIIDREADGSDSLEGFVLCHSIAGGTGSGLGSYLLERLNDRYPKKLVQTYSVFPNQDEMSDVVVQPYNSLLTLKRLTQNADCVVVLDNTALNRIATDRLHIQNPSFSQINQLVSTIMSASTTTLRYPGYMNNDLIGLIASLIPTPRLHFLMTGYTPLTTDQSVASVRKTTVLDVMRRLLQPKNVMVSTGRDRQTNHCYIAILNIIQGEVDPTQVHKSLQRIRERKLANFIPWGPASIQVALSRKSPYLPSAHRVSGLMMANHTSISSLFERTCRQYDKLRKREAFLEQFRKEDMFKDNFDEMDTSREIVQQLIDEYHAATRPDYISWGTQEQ
UniProt P11441: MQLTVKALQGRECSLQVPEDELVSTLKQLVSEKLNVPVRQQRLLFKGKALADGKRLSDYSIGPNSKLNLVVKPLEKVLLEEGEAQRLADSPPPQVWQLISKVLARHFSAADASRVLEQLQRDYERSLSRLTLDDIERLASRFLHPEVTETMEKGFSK
UniProt Q9C0C9: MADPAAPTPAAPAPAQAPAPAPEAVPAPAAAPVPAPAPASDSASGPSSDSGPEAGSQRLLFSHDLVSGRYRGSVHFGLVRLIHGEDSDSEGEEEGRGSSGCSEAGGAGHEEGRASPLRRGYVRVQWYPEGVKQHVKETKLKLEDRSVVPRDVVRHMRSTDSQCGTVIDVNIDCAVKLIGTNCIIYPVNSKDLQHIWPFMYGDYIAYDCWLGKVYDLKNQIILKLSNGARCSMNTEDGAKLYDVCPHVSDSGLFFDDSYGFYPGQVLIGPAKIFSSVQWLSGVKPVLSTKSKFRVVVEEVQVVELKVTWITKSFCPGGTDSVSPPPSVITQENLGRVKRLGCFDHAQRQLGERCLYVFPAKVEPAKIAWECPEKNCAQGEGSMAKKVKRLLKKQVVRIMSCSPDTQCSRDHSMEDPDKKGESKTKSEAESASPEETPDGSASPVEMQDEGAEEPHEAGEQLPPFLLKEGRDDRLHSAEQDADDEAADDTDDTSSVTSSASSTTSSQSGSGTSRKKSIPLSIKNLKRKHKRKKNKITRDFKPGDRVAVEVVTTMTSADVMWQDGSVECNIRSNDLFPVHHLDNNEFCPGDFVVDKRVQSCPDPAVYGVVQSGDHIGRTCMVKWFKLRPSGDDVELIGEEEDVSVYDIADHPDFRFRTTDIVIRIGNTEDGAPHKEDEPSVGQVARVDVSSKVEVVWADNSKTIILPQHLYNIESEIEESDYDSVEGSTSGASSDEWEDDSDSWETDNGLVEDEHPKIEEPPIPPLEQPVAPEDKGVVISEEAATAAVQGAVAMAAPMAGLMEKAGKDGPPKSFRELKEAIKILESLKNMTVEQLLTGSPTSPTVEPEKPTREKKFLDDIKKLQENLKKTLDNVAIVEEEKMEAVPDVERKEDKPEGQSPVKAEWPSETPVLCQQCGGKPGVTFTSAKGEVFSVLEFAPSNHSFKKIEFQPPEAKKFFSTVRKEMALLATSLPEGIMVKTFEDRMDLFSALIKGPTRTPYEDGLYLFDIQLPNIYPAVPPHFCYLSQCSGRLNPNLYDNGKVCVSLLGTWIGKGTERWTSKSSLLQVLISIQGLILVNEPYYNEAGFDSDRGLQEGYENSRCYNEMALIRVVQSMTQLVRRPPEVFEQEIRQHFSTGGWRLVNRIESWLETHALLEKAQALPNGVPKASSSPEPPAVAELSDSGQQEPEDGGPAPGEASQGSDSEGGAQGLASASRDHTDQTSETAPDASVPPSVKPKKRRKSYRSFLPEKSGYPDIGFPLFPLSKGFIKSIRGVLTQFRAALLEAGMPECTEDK
UniProt Q9HA47: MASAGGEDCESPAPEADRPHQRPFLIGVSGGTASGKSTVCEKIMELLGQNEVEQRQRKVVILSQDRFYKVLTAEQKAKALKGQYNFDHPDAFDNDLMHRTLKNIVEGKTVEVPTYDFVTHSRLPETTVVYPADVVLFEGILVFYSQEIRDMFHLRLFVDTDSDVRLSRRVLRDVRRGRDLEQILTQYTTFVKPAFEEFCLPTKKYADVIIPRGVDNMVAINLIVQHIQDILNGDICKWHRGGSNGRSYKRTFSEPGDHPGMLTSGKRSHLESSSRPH
UniProt Q9NZI7: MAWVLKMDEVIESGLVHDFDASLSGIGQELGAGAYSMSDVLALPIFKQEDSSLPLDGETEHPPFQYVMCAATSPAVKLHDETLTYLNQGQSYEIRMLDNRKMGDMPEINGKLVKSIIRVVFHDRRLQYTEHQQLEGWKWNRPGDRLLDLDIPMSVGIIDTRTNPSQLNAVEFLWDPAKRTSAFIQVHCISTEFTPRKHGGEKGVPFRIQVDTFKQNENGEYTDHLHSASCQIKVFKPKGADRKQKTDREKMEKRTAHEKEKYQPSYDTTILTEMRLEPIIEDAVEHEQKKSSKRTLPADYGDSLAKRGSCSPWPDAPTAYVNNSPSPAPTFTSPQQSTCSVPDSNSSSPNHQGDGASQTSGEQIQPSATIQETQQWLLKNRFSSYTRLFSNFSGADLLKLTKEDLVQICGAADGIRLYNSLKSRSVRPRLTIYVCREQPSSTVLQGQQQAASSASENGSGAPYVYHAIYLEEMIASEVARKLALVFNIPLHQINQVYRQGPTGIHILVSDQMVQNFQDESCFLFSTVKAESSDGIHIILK
UniProt P61088: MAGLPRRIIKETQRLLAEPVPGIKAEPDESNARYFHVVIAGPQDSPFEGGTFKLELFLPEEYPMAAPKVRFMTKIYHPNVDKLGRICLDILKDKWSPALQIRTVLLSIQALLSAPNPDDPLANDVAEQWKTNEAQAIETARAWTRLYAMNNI
UniProt P26368, whole entry, looked up: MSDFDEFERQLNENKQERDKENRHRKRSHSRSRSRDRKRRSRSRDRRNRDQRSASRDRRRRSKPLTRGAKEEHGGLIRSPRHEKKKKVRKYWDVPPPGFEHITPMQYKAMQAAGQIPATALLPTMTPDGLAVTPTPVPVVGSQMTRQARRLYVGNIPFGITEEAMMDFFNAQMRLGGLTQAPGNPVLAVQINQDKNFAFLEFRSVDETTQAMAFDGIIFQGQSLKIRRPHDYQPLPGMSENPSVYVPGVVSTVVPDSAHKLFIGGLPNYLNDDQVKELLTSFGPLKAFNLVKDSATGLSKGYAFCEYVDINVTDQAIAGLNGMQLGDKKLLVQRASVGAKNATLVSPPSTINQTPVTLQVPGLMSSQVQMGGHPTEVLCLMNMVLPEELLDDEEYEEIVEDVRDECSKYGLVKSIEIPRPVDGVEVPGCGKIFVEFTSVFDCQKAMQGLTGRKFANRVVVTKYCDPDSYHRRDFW
UniProt Q14CS0: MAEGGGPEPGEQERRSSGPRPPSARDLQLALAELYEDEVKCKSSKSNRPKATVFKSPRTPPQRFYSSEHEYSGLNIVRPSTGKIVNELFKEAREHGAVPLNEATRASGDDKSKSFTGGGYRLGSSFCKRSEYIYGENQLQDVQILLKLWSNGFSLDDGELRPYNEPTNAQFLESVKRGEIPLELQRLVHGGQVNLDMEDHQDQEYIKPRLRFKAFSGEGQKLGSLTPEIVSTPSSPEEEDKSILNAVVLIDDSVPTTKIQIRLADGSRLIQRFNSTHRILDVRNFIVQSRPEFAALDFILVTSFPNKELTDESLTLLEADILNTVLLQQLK
UniProt P51965: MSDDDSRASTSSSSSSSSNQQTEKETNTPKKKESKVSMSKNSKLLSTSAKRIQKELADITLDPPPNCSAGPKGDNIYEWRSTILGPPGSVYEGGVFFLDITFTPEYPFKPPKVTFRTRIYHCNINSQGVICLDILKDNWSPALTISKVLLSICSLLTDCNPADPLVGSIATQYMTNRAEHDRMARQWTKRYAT
UniProt Q9UGJ1, whole entry, looked up: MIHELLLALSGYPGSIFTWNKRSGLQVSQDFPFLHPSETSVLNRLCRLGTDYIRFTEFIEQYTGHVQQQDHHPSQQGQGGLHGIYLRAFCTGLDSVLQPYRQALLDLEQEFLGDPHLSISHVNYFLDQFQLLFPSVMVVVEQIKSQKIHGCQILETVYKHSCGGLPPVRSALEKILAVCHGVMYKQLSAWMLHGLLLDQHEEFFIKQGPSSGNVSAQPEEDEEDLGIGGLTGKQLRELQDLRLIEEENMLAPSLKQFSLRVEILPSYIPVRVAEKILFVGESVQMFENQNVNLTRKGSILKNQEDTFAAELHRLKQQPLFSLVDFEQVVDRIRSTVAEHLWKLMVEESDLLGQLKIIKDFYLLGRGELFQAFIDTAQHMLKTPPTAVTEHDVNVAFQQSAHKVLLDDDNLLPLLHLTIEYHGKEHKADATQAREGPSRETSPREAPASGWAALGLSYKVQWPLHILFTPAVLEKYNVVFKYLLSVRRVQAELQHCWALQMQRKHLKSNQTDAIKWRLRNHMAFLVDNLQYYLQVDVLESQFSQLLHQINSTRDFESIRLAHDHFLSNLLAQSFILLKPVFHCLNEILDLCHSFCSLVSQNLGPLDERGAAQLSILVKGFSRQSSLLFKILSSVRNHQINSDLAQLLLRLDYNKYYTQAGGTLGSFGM
UniProt Q9NX01: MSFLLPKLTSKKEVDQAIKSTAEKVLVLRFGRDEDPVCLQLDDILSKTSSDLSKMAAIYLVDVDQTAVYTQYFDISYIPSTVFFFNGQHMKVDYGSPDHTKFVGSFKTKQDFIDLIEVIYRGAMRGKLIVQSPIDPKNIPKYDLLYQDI
UniProt Q04323: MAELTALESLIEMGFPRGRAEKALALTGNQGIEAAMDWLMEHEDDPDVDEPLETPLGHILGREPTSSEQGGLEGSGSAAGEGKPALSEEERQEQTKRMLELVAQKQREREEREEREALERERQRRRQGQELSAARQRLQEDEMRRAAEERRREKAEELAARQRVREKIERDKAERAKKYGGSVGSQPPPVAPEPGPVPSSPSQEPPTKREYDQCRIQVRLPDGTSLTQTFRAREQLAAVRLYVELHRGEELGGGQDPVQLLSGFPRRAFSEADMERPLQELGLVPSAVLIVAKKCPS
UniProt Q9H832: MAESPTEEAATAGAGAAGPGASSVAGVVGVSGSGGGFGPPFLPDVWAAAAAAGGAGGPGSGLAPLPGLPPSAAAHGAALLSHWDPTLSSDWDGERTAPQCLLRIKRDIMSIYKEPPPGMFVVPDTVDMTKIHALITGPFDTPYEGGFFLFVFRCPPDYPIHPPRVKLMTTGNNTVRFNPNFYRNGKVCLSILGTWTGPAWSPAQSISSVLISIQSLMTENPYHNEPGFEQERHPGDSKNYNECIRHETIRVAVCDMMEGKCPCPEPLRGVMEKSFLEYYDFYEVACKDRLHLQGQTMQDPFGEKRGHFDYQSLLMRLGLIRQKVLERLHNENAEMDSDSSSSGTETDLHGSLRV
UniProt Q9BQE3, whole entry, looked up: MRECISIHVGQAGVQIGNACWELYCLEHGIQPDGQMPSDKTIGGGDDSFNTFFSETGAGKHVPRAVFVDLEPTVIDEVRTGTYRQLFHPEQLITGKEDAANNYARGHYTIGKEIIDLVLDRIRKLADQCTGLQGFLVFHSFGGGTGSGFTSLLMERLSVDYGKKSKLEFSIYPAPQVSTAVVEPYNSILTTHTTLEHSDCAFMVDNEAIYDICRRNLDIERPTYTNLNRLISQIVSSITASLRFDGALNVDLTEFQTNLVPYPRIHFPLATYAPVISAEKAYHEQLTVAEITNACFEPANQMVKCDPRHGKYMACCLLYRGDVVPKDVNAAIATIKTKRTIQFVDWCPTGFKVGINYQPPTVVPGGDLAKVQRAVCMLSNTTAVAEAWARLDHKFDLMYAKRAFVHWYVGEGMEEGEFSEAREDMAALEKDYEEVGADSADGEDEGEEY

Assays:
Experiment in all cases: log2 fold change, soluble protein after heating vs DMSO (PISA); higher = thermal stabilisation; K562 lysate, 10 uM; active = over 0.2 and 3.5 SD of the protein, either way, in both replicates (recomputed)
[1] = compound: C1=CC=C(C=C1)[C@H](COC2=CC3=C(C=C2)NC(=O)N3)NC(=O)C4=CC=CN(C4=O)CC5=CC(=C(C=C5)F)F
In short: (§1)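 Values give the log-two fold change in thermal stability against solvent controls, from duplicates. Crude K562 extract at 1 mg/mL protein, made by dounce homogenisation in PBS pH 7.4 with 1 mM MgCl2, was treated with 10 μM compound for 30 min. After 3 min heating across 48°C-58°C, aliquots were pooled, adjusted to 0.5% NP-40 at 4°C and centrifuged at 21,000xg for 90 min. The supernatant was measured by TMTpro 16plex LC-MS/MS with channel sums equalised.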

[2] = compound: CC1=C(SC2=C1C(=N[C@H](C3=NN=C(N32)C)CC(=O)N)C4=CC=C(C=C4)Cl)C
In short: as §1

[3] = compound: CC1=C2C(=CC=C1)N=C(N(C2=O)C3=CC=CC=C3C)CN4C=NC5=C(N=CN=C54)N
In short: as §1

[4] = compound: Cc1sc2c(c1C)C(c1ccc(Cl)cc1)=N[C@@H](CC(=O)OC(C)(C)C)c1nnc(C)n1-2
In short: as §1

[5] = compound: c1ccc([C@@H]2C[C@H]2NC2CCNCC2)cc1
In short: as §1

Measured: log2 fold change

UBE2J1 (UniProt Q9Y385)
inactive: [1] -0.078 | [2] 0.027 | [3] 0.041 | [4] -0.077 | [5] 0.067

UBE2K (UniProt P61086)
inactive: [1] 0.049 | [2] -0.032 | [3] -0.004 | [4] -0.018 | [5] -0.06

UBE2D1 (UniProt P51668)
inactive: [1] 0.056 | [2] 0.066 | [3] 0.02 | [4] -0.082 | [5] 0.016

UBE2V2 (UniProt Q15819)
inactive: [1] 0.004 | [2] -0.017 | [3] -0.016 | [4] 0.017 | [5] 0.017

TUBG1 (UniProt P23258)
inactive: [1] 0 | [2] 0.051 | [3] 0.011 | [4] 0.021 | [5] 0.067

UBR4 (UniProt Q5T4S7)
inactive: [1] -0.012 | [2] -0.008 | [3] 0.012 | [4] 0.012 | [5] -0.003

UBE2F isoform 2 (UniProt Q969M7)
inactive: [1] -0.013 | [2] -0.042 | [3] -0.013 | [4] 0.007 | [5] 0

UBL4A (UniProt P11441)
inactive: [1] -0.029 | [2] -0.003 | [3] -0.017 | [4] 0.142 | [5] 0.073

UBE2O (UniProt Q9C0C9)
inactive: [1] 0.007 | [2] 0.015 | [3] -0.003 | [4] -0.033 | [5] -0.083

UCK1 isoform 4 (UniProt Q9HA47)
inactive: [1] 0.032 | [2] -0.083 | [3] -0.013 | [4] 0.129 | [5] 0.001

UBP1 (UniProt Q9NZI7)
inactive: [1] 0.082 | [2] -0.057 | [3] -0.018 | [4] 0.009 | [5] 0.056

UBE2N (UniProt P61088)
inactive: [1] -0.004 | [2] -0.016 | [3] -0.027 | [4] 0.001 | [5] -0.001

U2AF2 (UniProt P26368)
inactive: [1] 0.021 | [2] -0.009 | [3] 0.005 | [4] 0.042 | [5] 0.001

UBE3D (UniProt Q7Z6J8)
inactive: [1] -0.012 | [2] 0.014 | [3] 0.022 | [4] 0.021 | [5] -0.029

UBXN2B (UniProt Q14CS0)
inactive: [1] 0.028 | [2] -0.03 | [3] 0.019 | [4] 0.042 | [5] 0.014

UBE2E1 (UniProt P51965)
inactive: [1] 0.02 | [2] 0.009 | [3] -0.099 | [4] -0.1 | [5] 0.023

UBR7 (UniProt Q8N806)
inactive: [1] 0.048 | [2] -0.005 | [3] 0.023 | [4] -0.036 | [5] 0.11

Two neighbouring entries from above, quoted:
UBE2E1 (UniProt P51965)
inactive: [1] 0.02 | [2] 0.009 | [3] -0.099 | [4] -0.1 | [5] 0.023

UBR7 (UniProt Q8N806)
inactive: [1] 0.048 | [2] -0.005 | [3] 0.023 | [4] -0.036 | [5] 0.11

(list continues)

TUBGCP4 (UniProt Q9UGJ1)
inactive: [1] -0.005 | [2] 0.019 | [3] 0.012 | [4] -0.027 | [5] -0.007

TXNL4B (UniProt Q9NX01)
inactive: [1] -0.444 | [2] 0.404 | [3] 0.242 | [4] 0.008 | [5] 0.105

TUBA4A (UniProt P68366)
inactive: [1] -0.068 | [2] 0.013 | [3] 0.03 | [4] -0.024 | [5] 0.019

UBXN1 (UniProt Q04323)
inactive: [1] 0.017 | [2] 0.017 | [3] -0.003 | [4] 0.035 | [5] -0.025

UCHL5 isoform 3 (UniProt Q9Y5K5)
inactive: [1] -0.001 | [2] 0.033 | [3] 0.01 | [4] 0.015 | [5] 0.029

UBE2Z (UniProt Q9H832)
inactive: [1] 0.02 | [2] 0.007 | [3] 0.025 | [4] -0.01 | [5] -0.049

TUBA1C (UniProt Q9BQE3)
inactive: [1] 0.043 | [2] 0.03 | [3] 0.023 | [4] 0.003 | [5] -0.006
